This passage reports binding results from PMC10427695.

For the assay, the target named is YAP-TEAD complex (human). Put plainly: co-IP; cell line not stated; 1% NP-40 lysis buffer (50 mM Tris-HCl pH 7.4, 150 mM NaCl, 5 mM EDTA), protein A/G magnetic beads, anti-YAP or anti-LDHD antibody, IgG control, 4 °C.

These are yes or no findings as the source states them, for the method shown. In cells and extracts the contact can be indirect. Binding calls can cover weak binding; strength is not graded here.

B1: D-lactate dehydrogenase (LDHD) (enzyme, UniProt Q86WU2 53-507)
chain: QHGRDESVHRCEPPDAVVWPQNVEQVSRLAALCYRQGVPIIPFGTGTGLEGGVCAVQGGVCVNLTHMDRILELNQEDFSVVVEPGVTRKALNAHLRDSGLWFPVDPGADASLCGMAATGASGTNAVRYGTMRDNVLNLEVVLPDGRLLHTAGRGRHFRFGFWPEIPHHTAWYSPCVSLGRRKSAAGYNLTGLFVGSEGTLGLITATTLRLHPAPEATVAATCAFPSVQAAVDSTVHILQAAVPVARIEFLDEVMMDACNRYSKLNCLVAPTLFLEFHGSQQALEEQLQRTEEIVQQNGASDFSWAKEAEERSRLWTARHNAWYAALATRPGCKGYSTDVCVPISRLPEIVVQTKEDLNASGLTGSIVGHVGDGNFHCILLVNPDDAEELGRVKAFAEQLGRRALALHGTCTGEHGIGMGKRQLLQEEVGAVGVETMRQLKAVLDPQGLMNPGKVL
Regarding B1, the binding entry was “binds”.
